These are yes or no findings as the source states them, for the method shown. In cells and extracts the contact can be indirect. Binding calls can cover weak binding; strength is not graded here.

Sequences of proteins named here, by UniProt entry; tags and fusion partners are left off. Residues count along the entry.
UniProt Q2G179, residues 1-477: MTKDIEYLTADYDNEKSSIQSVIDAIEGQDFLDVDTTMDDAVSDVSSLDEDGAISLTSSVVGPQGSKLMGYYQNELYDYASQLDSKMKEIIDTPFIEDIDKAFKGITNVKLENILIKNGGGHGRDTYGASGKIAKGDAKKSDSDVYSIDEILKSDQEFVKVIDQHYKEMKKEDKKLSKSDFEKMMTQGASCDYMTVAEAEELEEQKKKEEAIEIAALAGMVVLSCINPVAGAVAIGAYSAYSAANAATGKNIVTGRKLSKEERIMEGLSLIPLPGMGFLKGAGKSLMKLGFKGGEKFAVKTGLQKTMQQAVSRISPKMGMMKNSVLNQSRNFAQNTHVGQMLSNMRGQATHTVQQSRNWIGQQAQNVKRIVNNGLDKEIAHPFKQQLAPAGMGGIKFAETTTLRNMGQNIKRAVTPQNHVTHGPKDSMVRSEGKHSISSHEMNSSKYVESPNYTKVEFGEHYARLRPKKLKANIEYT

For experiment [1], the target named is EsaD_(1-477)-his (Staphylococcus aureus) (UniProt Q2G179). The experiment can be described thus: pull-down + SEC.
Experiment [2] deals with EsxD with a C-terminal twin-strep tag (Staphylococcus aureus) (UniProt Q2G180). The experiment can be described thus: pull-down + SEC; six genes co-expressed in E. coli M15 pREP4; complexes purified sequentially via the his-tag on EsaD^H528A (nickel) and the twin-strep tag on EsxD (strep-tactin), then SEC in 50 mM HEPES pH 7.5, 150 mM NaCl; components identified by immunoblot or mass spectrometry. On the technique in general: Immunoblotting shows a protein as a band on a membrane.

On to EsxC (from UniProt Q2G183), for which the binding entry in experiment [1] and in experiment [2] was “binds” in each case.
With “EsxD (co-expressed with truncated EsaD) (from UniProt Q2G180)”, the binding result in experiment [1] was “binds”.

B1: EsaG (protein, UniProt Q2G178 1-163)
chain: MTFEEKLSKIYNEIANEISSMIPVEWEKVYTMAYIDDGGGEVFFNYTKPGSDDLNYYTNIPKEYNISVQVFDDLWMDLYDLFEELRDLFKEEDLEPWTSCEFDFTREGELKVSFDYIDWINSEFGQIGRQNYYKYRKFGILPETEYEINKVKEIEQYIKELEE
In the case of B1, the binding entry in experiment [2] is “binds”.

B2: EsaE (protein, UniProt Q2G181 1-224)
chain: MKDVKRIDYFSYEELTILGGSKLPLVNFELFDPSNFEEAKAALIEKELVTENDKLTDAGFKVATLVREYISAIVNIRINDMYFAPFSYEKDEYILLSRFKNNGFQIRIINKDIAWWSIVQSYPLLMRQEKSNDWDFKQIDDETLENLNNESIDTIGRVLEIEIYNHQGDPQQSLYNIYEQNDLLFIRYPLKDKVLNVHIGVINTFIRELFGFDTDENHINKAEE
Regarding B2, the binding entry in experiment [2] is recorded as “binds”.

B3: EsxB (protein, UniProt Q2G182 1-104)
chain: MGGYKGIKADGGKVDQAKQLAAKTAKDIEACQKQTQQLAEYIEGSDWEGQFANKVKDVLLIMAKFQEELVQPMADHQKAIDNLSQNLAKYDTLSIKQGLDRVNP
With B3, the binding entry in experiment [2] is “binds”.

Values taken from article doi:10.1101/2023.04.01.535202, “Three small partner proteins facilitate the type VII-dependent secretion export of an antibacterial nuclease” (bioRxiv, 2023).
